Measurements from the supplement of paper PMC11732987, “Enantioselective OTUD7B fragment discovery through chemoproteomics screening and high-throughput optimisation” (Communications Chemistry, 2025).
This is one part of the list. The data scatter; read single values as rough.

The chains behind the UniProt entries cited, without tags or fusion partners. Where a name states a change or a piece, a line headed by the entry shows the natural chain unless it says otherwise. Residues count along the entry.
UniProt Q9UJF2: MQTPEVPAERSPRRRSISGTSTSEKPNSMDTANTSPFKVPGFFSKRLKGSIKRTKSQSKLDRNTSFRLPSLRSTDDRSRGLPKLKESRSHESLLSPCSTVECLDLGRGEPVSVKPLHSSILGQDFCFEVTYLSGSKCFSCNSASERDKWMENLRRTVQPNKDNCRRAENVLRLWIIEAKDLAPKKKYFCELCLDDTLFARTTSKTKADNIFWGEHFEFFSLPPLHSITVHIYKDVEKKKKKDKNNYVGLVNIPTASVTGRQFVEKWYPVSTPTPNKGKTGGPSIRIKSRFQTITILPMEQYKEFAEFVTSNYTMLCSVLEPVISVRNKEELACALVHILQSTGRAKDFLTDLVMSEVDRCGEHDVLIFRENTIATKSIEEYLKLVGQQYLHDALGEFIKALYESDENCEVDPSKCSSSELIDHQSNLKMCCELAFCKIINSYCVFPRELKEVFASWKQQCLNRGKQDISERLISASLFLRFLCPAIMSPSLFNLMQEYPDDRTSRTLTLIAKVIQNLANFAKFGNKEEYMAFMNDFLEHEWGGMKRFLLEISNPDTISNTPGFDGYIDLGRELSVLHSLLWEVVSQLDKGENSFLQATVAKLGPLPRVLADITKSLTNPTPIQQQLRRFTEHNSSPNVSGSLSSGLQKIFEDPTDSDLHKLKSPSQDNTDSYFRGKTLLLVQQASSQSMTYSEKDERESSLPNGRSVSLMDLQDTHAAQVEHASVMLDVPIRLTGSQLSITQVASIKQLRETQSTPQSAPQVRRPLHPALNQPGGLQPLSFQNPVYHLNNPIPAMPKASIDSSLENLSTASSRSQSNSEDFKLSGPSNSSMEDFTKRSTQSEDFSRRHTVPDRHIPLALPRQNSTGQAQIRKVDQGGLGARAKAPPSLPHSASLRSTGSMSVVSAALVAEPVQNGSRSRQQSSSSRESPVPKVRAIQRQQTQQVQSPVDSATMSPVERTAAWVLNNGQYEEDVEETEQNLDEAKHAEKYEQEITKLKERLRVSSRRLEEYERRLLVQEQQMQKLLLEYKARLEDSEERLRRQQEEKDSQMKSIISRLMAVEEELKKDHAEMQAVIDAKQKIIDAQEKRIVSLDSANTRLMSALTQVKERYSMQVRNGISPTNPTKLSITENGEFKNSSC
UniProt Q9P0K7: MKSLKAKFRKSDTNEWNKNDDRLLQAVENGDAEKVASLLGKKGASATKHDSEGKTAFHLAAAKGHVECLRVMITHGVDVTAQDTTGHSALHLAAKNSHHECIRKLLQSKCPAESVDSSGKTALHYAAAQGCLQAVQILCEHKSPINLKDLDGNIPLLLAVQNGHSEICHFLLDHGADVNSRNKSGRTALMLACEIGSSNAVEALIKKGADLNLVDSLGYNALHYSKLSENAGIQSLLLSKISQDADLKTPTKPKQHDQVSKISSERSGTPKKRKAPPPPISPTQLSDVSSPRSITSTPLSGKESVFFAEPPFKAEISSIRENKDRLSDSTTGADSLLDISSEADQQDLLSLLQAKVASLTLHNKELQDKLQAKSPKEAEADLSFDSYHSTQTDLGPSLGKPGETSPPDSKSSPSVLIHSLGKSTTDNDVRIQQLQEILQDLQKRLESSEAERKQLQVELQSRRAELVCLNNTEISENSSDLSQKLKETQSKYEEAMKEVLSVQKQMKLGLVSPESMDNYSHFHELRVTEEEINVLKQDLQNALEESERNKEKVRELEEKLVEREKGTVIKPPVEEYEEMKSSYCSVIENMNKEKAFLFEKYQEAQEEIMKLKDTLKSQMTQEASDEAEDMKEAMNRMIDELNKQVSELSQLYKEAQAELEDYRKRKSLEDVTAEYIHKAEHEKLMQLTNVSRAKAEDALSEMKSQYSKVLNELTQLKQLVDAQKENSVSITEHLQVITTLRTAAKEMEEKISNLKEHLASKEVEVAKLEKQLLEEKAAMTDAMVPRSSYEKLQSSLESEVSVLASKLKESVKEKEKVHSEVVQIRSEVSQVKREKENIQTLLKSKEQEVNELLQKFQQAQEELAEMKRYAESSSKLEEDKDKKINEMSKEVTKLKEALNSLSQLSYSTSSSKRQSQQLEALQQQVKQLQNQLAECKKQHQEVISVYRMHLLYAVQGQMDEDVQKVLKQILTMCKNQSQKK
UniProt Q9Y4C8: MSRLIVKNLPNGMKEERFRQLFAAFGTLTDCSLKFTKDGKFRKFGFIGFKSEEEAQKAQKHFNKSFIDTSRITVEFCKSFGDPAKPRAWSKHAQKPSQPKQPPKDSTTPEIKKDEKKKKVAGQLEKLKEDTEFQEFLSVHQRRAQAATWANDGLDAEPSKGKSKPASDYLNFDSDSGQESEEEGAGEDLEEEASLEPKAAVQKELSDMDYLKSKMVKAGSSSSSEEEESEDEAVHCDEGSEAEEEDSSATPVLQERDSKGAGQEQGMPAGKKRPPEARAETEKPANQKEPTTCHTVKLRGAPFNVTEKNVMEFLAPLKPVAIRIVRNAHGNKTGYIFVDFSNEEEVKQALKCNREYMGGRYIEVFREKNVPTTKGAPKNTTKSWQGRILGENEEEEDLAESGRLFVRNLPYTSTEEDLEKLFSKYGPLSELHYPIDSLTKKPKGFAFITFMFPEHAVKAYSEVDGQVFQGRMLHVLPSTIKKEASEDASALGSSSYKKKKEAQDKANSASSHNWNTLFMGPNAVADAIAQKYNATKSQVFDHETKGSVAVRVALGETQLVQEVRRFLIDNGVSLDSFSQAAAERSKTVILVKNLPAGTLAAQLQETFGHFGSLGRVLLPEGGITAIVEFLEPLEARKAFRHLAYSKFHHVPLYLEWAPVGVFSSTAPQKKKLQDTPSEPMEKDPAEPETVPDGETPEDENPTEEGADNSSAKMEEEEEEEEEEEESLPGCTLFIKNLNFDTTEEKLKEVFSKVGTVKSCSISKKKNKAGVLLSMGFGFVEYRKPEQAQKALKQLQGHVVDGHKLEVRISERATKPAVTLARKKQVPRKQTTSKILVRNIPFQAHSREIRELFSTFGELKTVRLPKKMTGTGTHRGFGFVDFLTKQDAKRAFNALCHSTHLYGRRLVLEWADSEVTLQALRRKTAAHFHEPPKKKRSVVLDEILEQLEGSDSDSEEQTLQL
UniProt Q9UBZ9: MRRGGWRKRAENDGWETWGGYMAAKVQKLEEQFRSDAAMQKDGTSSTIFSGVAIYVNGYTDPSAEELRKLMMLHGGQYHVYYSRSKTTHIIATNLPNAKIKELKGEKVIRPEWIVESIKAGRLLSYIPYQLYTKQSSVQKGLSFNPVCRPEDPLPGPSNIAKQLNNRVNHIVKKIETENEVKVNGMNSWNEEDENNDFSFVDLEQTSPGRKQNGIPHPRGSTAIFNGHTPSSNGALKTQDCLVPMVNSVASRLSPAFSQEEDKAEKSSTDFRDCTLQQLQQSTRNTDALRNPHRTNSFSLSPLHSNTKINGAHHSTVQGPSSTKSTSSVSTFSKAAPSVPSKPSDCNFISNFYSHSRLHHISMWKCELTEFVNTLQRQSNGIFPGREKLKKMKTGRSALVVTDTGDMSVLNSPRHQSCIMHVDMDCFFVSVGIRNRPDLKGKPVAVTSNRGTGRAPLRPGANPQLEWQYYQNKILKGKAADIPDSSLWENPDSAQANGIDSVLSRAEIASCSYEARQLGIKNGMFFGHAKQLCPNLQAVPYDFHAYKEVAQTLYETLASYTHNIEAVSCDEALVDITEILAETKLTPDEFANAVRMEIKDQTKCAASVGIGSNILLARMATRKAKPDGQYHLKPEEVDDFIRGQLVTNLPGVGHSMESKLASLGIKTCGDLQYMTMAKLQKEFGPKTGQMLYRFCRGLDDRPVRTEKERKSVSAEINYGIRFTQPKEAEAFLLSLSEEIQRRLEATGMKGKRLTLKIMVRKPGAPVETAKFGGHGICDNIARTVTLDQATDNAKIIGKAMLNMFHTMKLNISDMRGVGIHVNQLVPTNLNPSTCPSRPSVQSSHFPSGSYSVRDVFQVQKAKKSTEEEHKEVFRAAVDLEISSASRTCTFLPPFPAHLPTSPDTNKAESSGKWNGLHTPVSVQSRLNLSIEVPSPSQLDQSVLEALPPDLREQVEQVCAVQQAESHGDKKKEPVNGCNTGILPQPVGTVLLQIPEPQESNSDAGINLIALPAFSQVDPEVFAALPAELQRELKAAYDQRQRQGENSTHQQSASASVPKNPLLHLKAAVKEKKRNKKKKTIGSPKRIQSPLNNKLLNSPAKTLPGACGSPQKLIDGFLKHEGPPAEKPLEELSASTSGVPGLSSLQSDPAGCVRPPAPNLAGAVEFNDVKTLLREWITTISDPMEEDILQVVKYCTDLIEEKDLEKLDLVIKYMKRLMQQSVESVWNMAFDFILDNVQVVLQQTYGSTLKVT
UniProt Q4ADV7: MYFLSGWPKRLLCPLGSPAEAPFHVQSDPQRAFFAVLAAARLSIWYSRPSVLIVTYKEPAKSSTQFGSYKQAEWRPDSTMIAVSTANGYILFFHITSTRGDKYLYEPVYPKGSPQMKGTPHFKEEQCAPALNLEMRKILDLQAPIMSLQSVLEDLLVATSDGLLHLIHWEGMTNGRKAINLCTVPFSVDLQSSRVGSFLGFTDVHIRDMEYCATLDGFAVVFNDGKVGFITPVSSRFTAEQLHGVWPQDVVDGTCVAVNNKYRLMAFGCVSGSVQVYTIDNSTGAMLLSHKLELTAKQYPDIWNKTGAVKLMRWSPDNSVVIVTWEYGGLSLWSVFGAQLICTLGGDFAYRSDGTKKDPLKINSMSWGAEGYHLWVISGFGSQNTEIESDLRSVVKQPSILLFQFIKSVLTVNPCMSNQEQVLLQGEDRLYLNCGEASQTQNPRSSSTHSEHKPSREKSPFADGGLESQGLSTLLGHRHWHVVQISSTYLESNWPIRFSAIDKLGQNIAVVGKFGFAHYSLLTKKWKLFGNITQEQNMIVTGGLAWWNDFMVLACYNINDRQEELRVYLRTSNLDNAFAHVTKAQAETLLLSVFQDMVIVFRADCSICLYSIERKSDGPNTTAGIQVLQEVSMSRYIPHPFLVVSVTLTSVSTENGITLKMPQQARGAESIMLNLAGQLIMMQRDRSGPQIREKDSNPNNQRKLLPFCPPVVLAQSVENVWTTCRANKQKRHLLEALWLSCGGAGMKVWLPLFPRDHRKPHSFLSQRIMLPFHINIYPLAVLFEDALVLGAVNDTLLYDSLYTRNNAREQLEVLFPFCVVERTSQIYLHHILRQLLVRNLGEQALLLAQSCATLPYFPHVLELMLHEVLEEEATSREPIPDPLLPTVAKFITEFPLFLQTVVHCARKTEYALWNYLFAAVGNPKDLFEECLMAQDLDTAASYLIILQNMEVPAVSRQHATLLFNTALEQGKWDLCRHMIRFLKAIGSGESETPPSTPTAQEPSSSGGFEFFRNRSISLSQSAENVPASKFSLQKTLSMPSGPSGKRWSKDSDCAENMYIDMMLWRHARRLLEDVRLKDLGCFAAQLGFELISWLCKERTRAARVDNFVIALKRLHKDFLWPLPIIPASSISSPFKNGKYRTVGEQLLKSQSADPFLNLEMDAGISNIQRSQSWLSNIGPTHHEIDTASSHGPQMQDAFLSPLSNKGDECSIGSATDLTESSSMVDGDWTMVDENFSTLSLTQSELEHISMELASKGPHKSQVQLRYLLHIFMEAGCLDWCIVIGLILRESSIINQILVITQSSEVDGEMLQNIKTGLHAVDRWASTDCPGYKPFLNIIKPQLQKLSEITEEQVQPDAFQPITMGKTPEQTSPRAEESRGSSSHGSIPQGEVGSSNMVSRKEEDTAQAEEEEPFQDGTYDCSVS
UniProt Q9P258, 42-68: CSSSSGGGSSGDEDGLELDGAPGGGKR
UniProt Q9NW13: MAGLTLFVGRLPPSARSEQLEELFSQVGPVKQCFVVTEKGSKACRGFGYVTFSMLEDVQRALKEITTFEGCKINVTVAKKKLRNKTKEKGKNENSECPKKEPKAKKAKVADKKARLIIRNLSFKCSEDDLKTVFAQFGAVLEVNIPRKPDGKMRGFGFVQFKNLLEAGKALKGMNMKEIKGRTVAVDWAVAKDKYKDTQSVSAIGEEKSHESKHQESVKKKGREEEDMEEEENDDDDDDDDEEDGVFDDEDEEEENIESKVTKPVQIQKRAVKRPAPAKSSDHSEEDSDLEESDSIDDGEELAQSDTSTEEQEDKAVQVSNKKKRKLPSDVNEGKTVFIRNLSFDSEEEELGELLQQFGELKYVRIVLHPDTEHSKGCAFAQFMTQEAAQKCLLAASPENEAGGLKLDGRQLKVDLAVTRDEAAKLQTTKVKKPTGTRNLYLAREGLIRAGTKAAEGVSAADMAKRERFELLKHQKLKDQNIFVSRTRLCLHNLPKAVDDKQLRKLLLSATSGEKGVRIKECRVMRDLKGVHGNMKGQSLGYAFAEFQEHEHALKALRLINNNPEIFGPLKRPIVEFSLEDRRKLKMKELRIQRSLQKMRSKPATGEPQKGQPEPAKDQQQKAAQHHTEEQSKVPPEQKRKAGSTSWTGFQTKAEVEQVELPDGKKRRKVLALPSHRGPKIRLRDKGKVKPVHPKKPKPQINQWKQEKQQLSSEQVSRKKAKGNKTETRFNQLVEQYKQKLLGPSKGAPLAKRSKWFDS

Columns and labels:
[1] = compound: ClCC(=O)N[C@@H]1CCCc2ccccc12; test: log2 mean competition ratio of IA-DTB cysteine labelling (DMSO/compound) (log2 ratio); higher = stronger cysteine engagement by compound; settings: treatment time: 4 h, cell line lysate: HEK293T
Experimental: (§1)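 IA-DTB competitive cysteine chemoproteomics in HEK293T RIPA lysate. Lysates were treated with compound 29 or 30 at 50 or 200 µM for 4 h, then IA-DTB (500 µM, 1 h), trypsin-digested, NeutrAvidin-enriched and analysed by diaPASEF. Competition ratio = intensity DMSO / intensity compound (n=4 treated, n=64 DMSO); binding: mean log2 CR ≥ 1 and p ≤ 0.05 plus QC filters. Target is the cysteine site.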

[2] = compound: ClCC(=O)N[C@H]1CCCc2ccccc12; test: as above; settings: treatment time: 4 h, cell line lysate: HEK293T
Experimental: as §1

| Target | log2 mean competition ratio ([1]; 50 µM) | log2 mean competition ratio ([1]; 200 µM) | log2 mean competition ratio ([2]; 50 µM) | log2 mean competition ratio ([2]; 200 µM) |
| --- | --- | --- | --- | --- |
| RASAL2 C415 (UniProt Q9UJF2) | -0.0281 | 0.225 | -0.328 | 0.0797 |
| RGPD8 C349 | 0.261 | 0.252 | -0.286 | 0.849 |
| RAI14 C68 (UniProt Q9P0K7) | -0.234 | -0.359 | -0.158 | -0.0406 |
| REXO1 C389 (UniProt Q8N1G1) | -0.0246 | -0.173 | 0.174 | -0.0267 |
| RARS1 C150 | -0.0841 | 0.0265 | -0.263 | -0.079 |
| RBM26 C25 (UniProt Q5T8P6) | -0.216 | -0.156 | -0.312 | -0.0869 |
| REST C945 (UniProt Q13127) | -0.351 | 0.326 | -0.284 | 0.178 |
| RIMOC1 C179 | -0.114 | 0.302 | -0.028 | 0.182 |
| RASSF4 C145 | -0.13 | 0.299 | -0.0297 | 0.283 |
| RIPK2 C286 (UniProt O43353) | -0.239 | 0.455 | -0.614 | 0.305 |
| RESF1 C962 (UniProt Q9HCM1) | 0.394 | -0.0336 | 0.0681 | 0.168 |
| RC3H1 C1049 (UniProt Q5TC82) | -0.266 | -0.232 | -0.035 | -0.149 |
| RIPK1 C656 (UniProt Q13546) | 0.142 | 0.15 | 0.187 | -0.185 |
| RB1 C853 (UniProt P06400) | 0.00198 | -0.00791 | -0.0843 | 0.089 |
| RB1 C438 (UniProt P06400) | -0.115 | -0.0429 | -0.307 | -0.118 |
| RBM19 C77 (UniProt Q9Y4C8) | -0.0245 | 0.233 | -0.0059 | 0.184 |
| RIC8B C373 (UniProt Q9NVN3) | -0.443 | 0.249 | -0.379 | 0.112 |

Limited to log2 mean competition ratio ([1]; 200 µM) and log2 mean competition ratio ([1]; 50 µM), for some of the entries so far:
Target	log2 mean competition ratio ([1]; 200 µM)	log2 mean competition ratio ([1]; 50 µM)
RAI14 C68 (UniProt Q9P0K7)	-0.359	-0.234
RIPK2 C286 (UniProt O43353)	0.455	-0.239

Continuation.

| Target | log2 mean competition ratio ([1]; 50 µM) | log2 mean competition ratio ([1]; 200 µM) | log2 mean competition ratio ([2]; 50 µM) | log2 mean competition ratio ([2]; 200 µM) |
| --- | --- | --- | --- | --- |
| RESF1 C1491 (UniProt Q9HCM1) | -0.0523 | 0.219 | -0.147 | 0.234 |
| RALGAPB C1442 (UniProt Q86X10) | 0.0443 | – | 0.305 | -0.155 |
| REV1 C1106 (UniProt Q9UBZ9) | 0.0945 | 0.026 | 0.0691 | -0.006 |
| RASA1 C1002 (UniProt P20936) | 0.256 | -0.0532 | -0.368 | -0.181 |
| RIC1 C818 (UniProt Q4ADV7) | – | -0.317 | 0.544 | -0.0787 |
| RILPL2 C161 (UniProt Q969X0) | -0.0224 | -0.281 | -0.433 | -0.13 |
| RALGAPA2 C169 (UniProt Q2PPJ7) | -0.125 | 0.106 | -0.0183 | 0.139 |
| RCC2 C42 (UniProt Q9P258) | 0.0291 | -0.035 | 0.0198 | -0.0951 |
| RASAL1 C761 | -0.197 | -0.231 | -0.156 | -0.198 |
| RBFA C338 (UniProt Q8N0V3) | -0.165 | 0.252 | -0.331 | 0.419 |
| RAP1GDS1 C454 (UniProt P52306) | -0.0778 | -0.307 | 0.238 | -0.242 |
| RNASEH1 C191 (UniProt O60930) | 0.216 | 0.124 | 0.3 | 0.0976 |
| RHBDD3 C202 (UniProt Q9Y3P4) | -0.00671 | 0.613 | -0.316 | 0.347 |
| RBL2 C274 (UniProt Q08999) | -0.395 | 0.0318 | 0.0298 | 0.0479 |
| RAP1GDS1 C117 (UniProt P52306) | 0.296 | 0.226 | -0.028 | 0.209 |
| RBM28 C33 (UniProt Q9NW13) | -0.326 | -0.173 | 0.478 | 0.321 |
